Reference: article PMC8393719
Results are given in words; binding and its absence hold for the method and conditions named. For part of these data: Binding calls can cover weak binding; strength is not graded here. Sequences can lack the tags named with a protein. For part of these data: In cells and extracts the contact can be indirect.

Legend:
[1] = target: YFP^N-OsTrx1 (OsTrx1 fused to the N-terminal part of YFP) (rice (Oryza sativa)); assay: split reporter; BiFC with split YFP; rice protoplasts co-transformed with pUC-SPYNE and pUC-SPYCE constructs, confocal microscopy; twenty-five cells examined for each transformation
[2] = target: YFP^N-OsPIE1 (OsPIE1 fused to the N-terminal part of YFP) (rice (Oryza sativa)); assay: as above
[3] = target: OsPIE1 with the binding domain (BD) (rice (Oryza sativa)); assay: two-hybrid; S. cerevisiae AH109 co-transformed with bait (pGBKT7) and prey (pGADT7); growth on SD medium lacking Trp, Leu, His and Ade

Row | binding [1] | binding [2] | binding [3] | Binder
1 | no binding | binds | – | YFP^C-OsARP6 (Oryza sativa actin related protein 6 fused to the C-terminal part of YFP) (protein, UniProt Q5NBI2 1-429) MTGGSGVVVLDNGGGLLKAGFGGDMNPTAVVPNCMAKPPGSKKWLVADQLQAQDVDVTGMTLRRPIDRGYLINQEVQREVWERVIRNLLQVDPNNSSLLLVEPQFNPPALQHATDELVFEELGFKSLCVADAPSLVHLYEASRQPSLFRAQCSLVVDCGFSFTHASPVLQNFTLNYAVRRMDLGGKALTNYLKELISYRSLNVMDETLLIDDAKEKLCFVSLDVPGDLRLARLSSNDNPFRCSYILPDGITYKKGFVKDLDEACRYSSLPANGESVRKDSSDSDRSKFEDKKKPELSQNEFVLTNERFLVPEMLFHPIDLGMNQAGLAECIVRAIQACHPHLQPVLFERIILTGGSTLFPRFTERLEKELRPLVPDDYQVKIIAQEDPILGAWRGGSLLAHRPDFESMCITKSEYEEMGSMRCRRRFFH
2 | – | – | binds | OsARP6 fused to activation domain (AD) (protein, UniProt Q5NBI2 1-429) MTGGSGVVVLDNGGGLLKAGFGGDMNPTAVVPNCMAKPPGSKKWLVADQLQAQDVDVTGMTLRRPIDRGYLINQEVQREVWERVIRNLLQVDPNNSSLLLVEPQFNPPALQHATDELVFEELGFKSLCVADAPSLVHLYEASRQPSLFRAQCSLVVDCGFSFTHASPVLQNFTLNYAVRRMDLGGKALTNYLKELISYRSLNVMDETLLIDDAKEKLCFVSLDVPGDLRLARLSSNDNPFRCSYILPDGITYKKGFVKDLDEACRYSSLPANGESVRKDSSDSDRSKFEDKKKPELSQNEFVLTNERFLVPEMLFHPIDLGMNQAGLAECIVRAIQACHPHLQPVLFERIILTGGSTLFPRFTERLEKELRPLVPDDYQVKIIAQEDPILGAWRGGSLLAHRPDFESMCITKSEYEEMGSMRCRRRFFH
